Source: article PMC8243547 (BMC Complementary Medicine and Therapies, 2021)

Assays:
[1] = test system: murine macrophages Raw 264.7 cells; assay: Resazurin-based cytotoxicity assay, Raw 264.7 cells; conditions: for SI Raw Pf3D7: CC50 Raw / EC50 Pf3D7; for SI Raw (PfDd2): CC50 Raw / EC50 PfDd2
Method: (§1) The cytotoxicity assay was performed using the African green monkey normal kidney Vero cells (ATCC CRL 1586) and murine macrophages Raw 264.7 cells (ATCC #TIB-71) obtained from the American Type Culture Collection (ATCC).
(§2) The cytotoxicity of active natural products was assessed according to the protocol described by. The African green monkey normal kidney Vero cells (ATCC CRL 1586) and murine macrophages Raw 264.7 cells (ATCC #TIB-71) were maintained in T-25 flasks (Corning Incorporated, USA) using complete Dulbecco’s Modified Eagle’s Medium (Sigma-Aldrich, Germany), supplemented with, 10% Fetal Bovine Serum (Sigma-Aldrich, Germany), 0.2% sodium bicarbonate (w/v) (Sigma-Aldrich, Germany) and 1% (v/v) Penicillin-Streptomycin (Sigma-Aldrich, Germany). The cells were kept at 37 °C for 72 h in 5% CO2 incubator, and the medium was renewed each 72 h and the cell density monitored under the inverted fluorescent microscope Etaluma 520 (Etaluma, USA) until the formation of a monolayer. Confluent culture (nearly 90%) was trypsinized (0.05% Trypsin-EDTA, Sigma-Aldrich, Germany), then centrifuged at 1800 rpm for 5 min and the resulting pellet was re-suspended in culture medium. Cells at 10^4cells per well were seeded (100 μL) in 96-well culture plates (Costar, USA) and incubated overnight to allow cell adhesion. Thereafter, 10 μL of serially diluted extracts, fractions (≤200 μg/mL), and compounds (≤50 μg/mL) were added to plate wells in duplicate. The plates were incubated in a humidified and 5% CO2 atmosphere at 37 °C for 48 h. Podophyllotoxin at 20 μM was added as positive control and wells containing untreated cells were included as 100% growth control. Ten microliters of resazurin stock solution (0.15 mg/mL in sterile PBS), were added to each well, and incubated for an additional 4 h. Fluorescence was then read using a Magelan Infinite M200 fluorescence multi-well plate reader (Tecan) with excitation and emission wavelengths at 530 and 590 nm, respectively. The percentage of cell viability was calculated with regard to the negative control, and subsequently used to determine the concentration that reduced 50% of cell viability (CC50) by non-linear regression using the GraphPad Prism software version 5.0 (San Diego, California) as described above. Selectivity indices (SI = CC50/EC50, defining the balance between cytotoxicity and antiplasmodial activity) were calculated for each test substance.
(§3) Microsoft Excel Software was used to calculate the percentage of inhibition. The EC50 and CC50 values for the in vitro antiplasmodial activity were determined by non-linear regression analysis using GraphPad Prism 5.0 Software.

[2] = test system: African green monkey normal kidney Vero cells; assay: Resazurin-based cytotoxicity assay, Vero cells; conditions: for SI Vero Pf3D7: CC50 Vero / EC50 Pf3D7; for SI Vero (PfDd2): CC50 Vero / EC50 PfDd2
Method: as §1, §2, §3

Compound	SI Raw Pf3D7 [1]	SI Raw (PfDd2) [1]	SI Vero Pf3D7 [2]	SI Vero (PfDd2) [2]
O=c1cc(-c2ccc(O)cc2)oc2cc(O)cc(O)c12 [Compound 1, apigenin]	> 9.73	> 11.29	> 9.73	> 11.29
COc1c(O)cc2c(=O)oc3c(OC)c(O)cc4c(=O)oc1c2c34 [Compound 6, 3,3′-O-dimethylellagic acid]	> 35.48	> 111.41	> 35.48	> 111.41
